Assay results reported in patent publication US20060024296A1.
Results are given in words; binding and its absence hold for the method and conditions named. Some entries that bind do so weakly or less than the wild type. Where a sequence is shown, tags or fusion partners need not be part of it.

Target: hu50/mu50 chimeric CS1-Fc (human/mouse chimera; human)
Experiment: sandwich ELISA, Fc-captured construct

binding | Binder
binds | Luc34 (antibody, IgG1, V domains shown) VH: QVQLQQSGAELARPGASVKLSCKASGYTFTSYWMQWVKQRPGQGLEWIGAIYPGDGDTRYTQKFKGKATLTADKSSSTAYMQLSSLASEDSAVYYCARGKVYYGSNPFAYWGQGTLVTVSA VL: DIQMTQSSSYLSVSLGGRVTITCKASDHINNWLAWYQQKPGNAPRLLISGATSLETGVPSRFSGSGSGKDYTLSITSLQTEDVATYYCQQYWSTPWTFGGGTKLEIK
binds | Luc69 (antibody, V domains shown) VH: QVQLQQSGPELVKPGASVKISCKASGYAFSNSWMNWVKQRPGQGLEWIGRIYPGDGDTKSNGKFKGKATLTADKSSRAAYMQLSSLTSVDSAVYFCARSTMIMTGAMDYWGQGTSVTVSS VL: DIVMTQSHKFMSTSVGDRVIITCKASQDVSTAVAWYQQKPGQSPKLLIYSASFRYTGVPDRFTGSGSGTDFTFTVSSVQAEDLAVYYCQQHYSTPPYTFGGGTKLEIK
binds | Luc90 (antibody, IgG2b, V domains shown) VH: QVQLQQPGAELVRPGASVKLSCKASGYSFTTYWMNWVKQRPGQGLEWIGMIHPSDSETRLNQKFKDKATLTVDKSSSTAYMQLSSPTSEDSAVYYCARSTMIATRAMDYWGQGTSVTVSS VL: DIVMTQSQKSMSTSVGDRVSITCKASQDVITGVAWYQQKPGQSPKLLIYSASYRYTGVPDRFTGSGSGTDFTFTISNVQAEDLAVYYCQQHYSTPLTFGAGTKLELK
